Publication PMC5003356

How the values were obtained:
Staufen1 NLuc fusion = target: T1, Staufen1 NLuc fusion (UniProt O95793); assay: BRET; conditions: range over ssRNA, ssDNA and RNA/DNA; BRET: 1X binding buffer (0.1 M potassium acetate, 20 mM Tris pH 7.5, 1 mM EDTA, 0.01% NP-40), room temperature, 15 min; protein in a lysate after overexpression; label: 3' Alexa Fluor 594; single-stranded DNA
T1 sequence (looked up, limits assumed): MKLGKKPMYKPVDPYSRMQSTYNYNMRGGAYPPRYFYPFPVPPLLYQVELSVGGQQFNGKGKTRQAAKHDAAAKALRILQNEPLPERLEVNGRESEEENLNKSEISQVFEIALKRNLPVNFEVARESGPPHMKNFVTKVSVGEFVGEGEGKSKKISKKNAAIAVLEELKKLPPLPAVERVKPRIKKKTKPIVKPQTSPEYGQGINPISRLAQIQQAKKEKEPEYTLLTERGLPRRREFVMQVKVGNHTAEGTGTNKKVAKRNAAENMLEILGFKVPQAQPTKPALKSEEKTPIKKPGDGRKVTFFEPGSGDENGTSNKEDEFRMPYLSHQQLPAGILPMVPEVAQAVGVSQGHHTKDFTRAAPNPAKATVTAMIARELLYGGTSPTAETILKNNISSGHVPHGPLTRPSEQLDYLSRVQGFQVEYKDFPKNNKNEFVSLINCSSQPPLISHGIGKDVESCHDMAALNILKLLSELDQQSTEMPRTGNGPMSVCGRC

RNase H1 NLuc fusion [1] = target: T2, RNase H1 NLuc fusion (UniProt O60930); assay: competition BRET; conditions: 3-10-3 cEt gap-mer; BRET: 1X binding buffer (0.1 M potassium acetate, 20 mM Tris pH 7.5, 1 mM EDTA, 0.01% NP-40), room temperature, 15 min; protein in a lysate after overexpression; protein details: NLuc (N or C); synthetic backbone
T2 sequence (looked up, limits assumed): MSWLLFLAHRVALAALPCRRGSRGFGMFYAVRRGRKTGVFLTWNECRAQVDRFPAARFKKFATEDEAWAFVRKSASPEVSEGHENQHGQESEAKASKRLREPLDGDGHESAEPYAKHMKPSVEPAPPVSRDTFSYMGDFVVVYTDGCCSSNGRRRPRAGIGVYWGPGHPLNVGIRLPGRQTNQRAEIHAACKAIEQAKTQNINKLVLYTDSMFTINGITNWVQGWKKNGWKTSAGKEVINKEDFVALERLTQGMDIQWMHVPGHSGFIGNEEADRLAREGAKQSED

[2] = target: NCL (RBD 1-4) NLuc fusion (UniProt P09405); assay: competition BRET; conditions: 3-10-3 cEt gap-mer; BRET: 1X binding buffer (0.1 M potassium acetate, 20 mM Tris pH 7.5, 1 mM EDTA, 0.01% NP-40), room temperature, 15 min; protein in a lysate after overexpression; protein details: NLuc (N or C); synthetic backbone
[3] = target: P54nrb NLuc fusion (Homo sapiens) (UniProt Q15233); assay: competition BRET; conditions: 3-10-3 cEt gap-mer; BRET: 1X binding buffer (0.1 M potassium acetate, 20 mM Tris pH 7.5, 1 mM EDTA, 0.01% NP-40), room temperature, 15 min; protein in a lysate after overexpression; protein details: NLuc (N or C); synthetic backbone
LRPPRC-NLuc [4] = target: LRPPRC-NLuc (UniProt P42704); assay: competition BRET; conditions: 3-10-3 cEt gap-mer; BRET: 1X binding buffer (0.1 M potassium acetate, 20 mM Tris pH 7.5, 1 mM EDTA, 0.01% NP-40), room temperature, 15 min; protein in a lysate after overexpression; protein details: C-terminal NLuc; synthetic backbone
NLuc-RPL5 = NLuc-RPL5 (UniProt P47962); assay: BRET; conditions: PS; 5-10-5 2'-F gap-mer; BRET: 1X binding buffer (0.1 M potassium acetate, 20 mM Tris pH 7.5, 1 mM EDTA, 0.01% NP-40), room temperature, 15 min; protein in a lysate after overexpression; protein details: N-terminal NLuc; label: 3' Alexa Fluor 594; synthetic backbone
RNase H1 NLuc fusion [5] = target: T2, RNase H1 NLuc fusion; assay: BRET; conditions: PS; 5-10-5 2'-F gap-mer; BRET: 1X binding buffer (0.1 M potassium acetate, 20 mM Tris pH 7.5, 1 mM EDTA, 0.01% NP-40), room temperature, 15 min; protein in a lysate after overexpression; protein details: NLuc (N or C); label: 3' Alexa Fluor 594; synthetic backbone
[6] = target: NCL (RBD 1-4) NLuc fusion (UniProt P09405); assay: BRET; conditions: PS; 5-10-5 2'-F gap-mer; BRET: 1X binding buffer (0.1 M potassium acetate, 20 mM Tris pH 7.5, 1 mM EDTA, 0.01% NP-40), room temperature, 15 min; protein in a lysate after overexpression; protein details: NLuc (N or C); label: 3' Alexa Fluor 594; synthetic backbone
Ku70-NLuc = Ku70-NLuc (UniProt P12956); assay: BRET; conditions: PS; 5-10-5 2'-F gap-mer; BRET: 1X binding buffer (0.1 M potassium acetate, 20 mM Tris pH 7.5, 1 mM EDTA, 0.01% NP-40), room temperature, 15 min; protein in a lysate after overexpression; protein details: C-terminal NLuc; label: 3' Alexa Fluor 594; synthetic backbone
[7] = target: P54nrb NLuc fusion (Homo sapiens) (UniProt Q15233); assay: BRET; conditions: PS; 5-10-5 2'-F gap-mer; BRET: 1X binding buffer (0.1 M potassium acetate, 20 mM Tris pH 7.5, 1 mM EDTA, 0.01% NP-40), room temperature, 15 min; protein in a lysate after overexpression; protein details: NLuc (N or C); label: 3' Alexa Fluor 594; synthetic backbone
NLuc-TCP1-beta = target: T3, NLuc-TCP1-beta (UniProt P80314); assay: BRET; conditions: PS; 5-10-5 2'-F gap-mer; BRET: 1X binding buffer (0.1 M potassium acetate, 20 mM Tris pH 7.5, 1 mM EDTA, 0.01% NP-40), room temperature, 15 min; protein in a lysate after overexpression; protein details: N-terminal NLuc; label: 3' Alexa Fluor 594; synthetic backbone
T3 sequence (looked up, limits assumed): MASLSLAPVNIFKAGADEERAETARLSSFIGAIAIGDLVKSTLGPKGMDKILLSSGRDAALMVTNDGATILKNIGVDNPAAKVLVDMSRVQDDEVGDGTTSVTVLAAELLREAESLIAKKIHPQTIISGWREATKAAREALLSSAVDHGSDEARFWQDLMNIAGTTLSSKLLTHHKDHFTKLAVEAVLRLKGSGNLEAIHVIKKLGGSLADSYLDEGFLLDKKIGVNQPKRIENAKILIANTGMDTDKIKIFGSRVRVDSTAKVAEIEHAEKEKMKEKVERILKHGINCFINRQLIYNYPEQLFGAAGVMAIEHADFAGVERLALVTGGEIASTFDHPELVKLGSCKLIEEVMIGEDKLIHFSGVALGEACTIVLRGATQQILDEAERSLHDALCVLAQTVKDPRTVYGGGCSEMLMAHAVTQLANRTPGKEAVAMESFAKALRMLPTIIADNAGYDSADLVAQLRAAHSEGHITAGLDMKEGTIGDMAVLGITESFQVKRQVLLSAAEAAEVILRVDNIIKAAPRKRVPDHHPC

NMP1 (NPM1) NLuc fusion = NMP1 (NPM1) NLuc fusion (UniProt P06748); assay: BRET; conditions: PS; 5-10-5 2'-F gap-mer; BRET: 1X binding buffer (0.1 M potassium acetate, 20 mM Tris pH 7.5, 1 mM EDTA, 0.01% NP-40), room temperature, 15 min; protein in a lysate after overexpression; protein details: NLuc (N or C); label: 3' Alexa Fluor 594; synthetic backbone
SFPQ-NLuc = SFPQ-NLuc (UniProt P23246); assay: BRET; conditions: PS; 5-10-5 2'-F gap-mer; BRET: 1X binding buffer (0.1 M potassium acetate, 20 mM Tris pH 7.5, 1 mM EDTA, 0.01% NP-40), room temperature, 15 min; protein in a lysate after overexpression; protein details: C-terminal NLuc; label: 3' Alexa Fluor 594; synthetic backbone
NLuc-PC4 = NLuc-PC4 (UniProt P53999); assay: BRET; conditions: PS; 5-10-5 2'-F gap-mer; BRET: 1X binding buffer (0.1 M potassium acetate, 20 mM Tris pH 7.5, 1 mM EDTA, 0.01% NP-40), room temperature, 15 min; protein in a lysate after overexpression; protein details: N-terminal NLuc; label: 3' Alexa Fluor 594; synthetic backbone
La NLuc fusion = La NLuc fusion (UniProt P05455); assay: BRET; conditions: PS; 5-10-5 2'-F gap-mer; BRET: 1X binding buffer (0.1 M potassium acetate, 20 mM Tris pH 7.5, 1 mM EDTA, 0.01% NP-40), room temperature, 15 min; protein in a lysate after overexpression; protein details: NLuc (N or C); label: 3' Alexa Fluor 594; synthetic backbone
ANXA2-NLuc = ANXA2-NLuc (UniProt P07356); assay: BRET; conditions: PS; 5-10-5 2'-F gap-mer; BRET: 1X binding buffer (0.1 M potassium acetate, 20 mM Tris pH 7.5, 1 mM EDTA, 0.01% NP-40), room temperature, 15 min; protein in a lysate after overexpression; protein details: C-terminal NLuc; label: 3' Alexa Fluor 594; synthetic backbone
HSP90 (mid)-NLuc = HSP90 (mid)-NLuc (UniProt P07900); assay: BRET; conditions: PS; 5-10-5 2'-F gap-mer; BRET: 1X binding buffer (0.1 M potassium acetate, 20 mM Tris pH 7.5, 1 mM EDTA, 0.01% NP-40), room temperature, 15 min; protein in a lysate after overexpression; protein details: C-terminal NLuc; label: 3' Alexa Fluor 594; synthetic backbone
LRPPRC-NLuc [8] = target: LRPPRC-NLuc (UniProt P42704); assay: BRET; conditions: PS; 5-10-5 2'-F gap-mer; BRET: 1X binding buffer (0.1 M potassium acetate, 20 mM Tris pH 7.5, 1 mM EDTA, 0.01% NP-40), room temperature, 15 min; protein in a lysate after overexpression; protein details: C-terminal NLuc; label: 3' Alexa Fluor 594; synthetic backbone
FUS-NLuc = target: T4, FUS-NLuc (UniProt P56959); assay: BRET; conditions: PS; 5-10-5 2'-F gap-mer; BRET: 1X binding buffer (0.1 M potassium acetate, 20 mM Tris pH 7.5, 1 mM EDTA, 0.01% NP-40), room temperature, 15 min; protein in a lysate after overexpression; protein details: C-terminal NLuc; label: 3' Alexa Fluor 594; synthetic backbone
T4 sequence (looked up, limits assumed): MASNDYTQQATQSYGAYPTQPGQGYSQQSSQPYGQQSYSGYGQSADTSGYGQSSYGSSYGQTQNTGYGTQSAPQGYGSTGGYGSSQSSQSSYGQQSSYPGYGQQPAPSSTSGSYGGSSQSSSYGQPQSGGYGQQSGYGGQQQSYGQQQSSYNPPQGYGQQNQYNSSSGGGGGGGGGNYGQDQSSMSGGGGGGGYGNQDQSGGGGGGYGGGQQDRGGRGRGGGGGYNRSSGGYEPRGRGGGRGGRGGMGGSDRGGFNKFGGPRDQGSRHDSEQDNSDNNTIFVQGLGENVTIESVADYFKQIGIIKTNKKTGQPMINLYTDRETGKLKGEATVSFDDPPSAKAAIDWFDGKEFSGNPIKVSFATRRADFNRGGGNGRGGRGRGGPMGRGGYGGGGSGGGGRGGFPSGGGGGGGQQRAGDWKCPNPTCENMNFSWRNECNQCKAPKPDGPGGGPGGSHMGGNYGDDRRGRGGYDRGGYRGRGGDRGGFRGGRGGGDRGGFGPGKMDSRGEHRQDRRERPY

NLuc-RPL11 = NLuc-RPL11 (UniProt P62913); assay: BRET; conditions: PS; 5-10-5 2'-F gap-mer; BRET: 1X binding buffer (0.1 M potassium acetate, 20 mM Tris pH 7.5, 1 mM EDTA, 0.01% NP-40), room temperature, 15 min; protein in a lysate after overexpression; protein details: N-terminal NLuc; label: 3' Alexa Fluor 594; synthetic backbone
NLuc-cJun = NLuc-cJun (UniProt P05627); assay: BRET; conditions: digitonin-permeabilized HeLa, Discussion says ~80 nM; BRET: 1X binding buffer (0.1 M potassium acetate, 20 mM Tris pH 7.5, 1 mM EDTA, 0.01% NP-40), room temperature, 15 min; protein in a lysate after overexpression; protein details: N-terminal NLuc; label: 3' Alexa Fluor 594 on strand 1

CTGCTAGCCTCTGGATTTGA [STAU1 ssDNA]: binds more weakly (Staufen1 NLuc fusion).

For CCCTCCCTCCCGCTAG [661121], the Kd (RNase H1 NLuc fusion [1]) was 20.4 nM, the Kd [2] was 0.82 nM and the Kd [3] was 3.39 nM. For the same sequence, the Kd (LRPPRC-NLuc [4]) was 0.22 nM.

With “CTGCTAGCCTCTGGATTTGA [766638 2'-F gap-mer]” the Kd (NLuc-RPL5) was 0.6 nM, the Kd (RNase H1 NLuc fusion [5]) was 2 nM and the Kd [6] was 0.002 nM. For the same sequence, the Kd (Ku70-NLuc) was 3 nM, the Kd [7] was 2.1 nM and the Kd (NLuc-TCP1-beta) was 189 nM. It also gave a Kd (NMP1 (NPM1) NLuc fusion) of over 1000 nM, a Kd (SFPQ-NLuc) of 0.72 nM and a Kd (NLuc-PC4) of 0.21 nM. It also gave a Kd (La NLuc fusion) of 1.1 nM, a Kd (ANXA2-NLuc) of over 1000 nM and a Kd (HSP90 (mid)-NLuc) of 98 nM. The Kd (LRPPRC-NLuc [8]) was 0.19 nM, the Kd (FUS-NLuc) was 0.12 nM and the Kd (NLuc-RPL11) was 9.8 nM.

“CGCTTGATGAGTCAGCCGGAA (double strand) [AP1 ds]”: binds (NLuc-cJun).

In the case of ACCCTGCCACGATGTA [660992], the Kd (RNase H1 NLuc fusion [1]) is reported as 46.3 nM, the Kd [2] is reported as 2.88 nM and the Kd [3] is reported as 15.2 nM. The Kd (LRPPRC-NLuc [4]) was 0.01 nM.

The exact form of at least one protein or probe is not confirmed. Where cells or extracts were used, other partners may take part. For some of these results: Weaker means in comparison with the reference protein, sequence or condition of that experiment. For some of these results: Where a protein sequence is shown, tags need not be part of it.
